# Data as given in patent publication US8900593B2 (Indiana University Research and Technology Corporation, priority 2007, dated 2014).
# Test: general procedure: Boc solid-phase peptide synthesis; Boc Thr(OBzl) Pam resin; methoxybenzhydrylamine resin for C-terminal amides; HBTU (FastBoc single couplings); DEPBT for lactam analogs
Substance,"final HPLC purity (conjugation step, 214 nm)",also measured
Glucagon Cys^29 Mal-PEG-5K,greater than 95%,
Glucagon Cys^17 Mal-PEG-5K,aprox. 90%,
Glucagon Cys^24 Mal-PEG-20K,,"final HPLC purity (conjugation step, analytical HPLC (Zorbax C8, 214 nm), MALDI mass spectral analysis): ˜90%"
HSQGTFTSDYSKYLDSRRAQDFVQWLMNTGPSSGAPPPS,,"final HPLC purity (whole synthesis, analytical HPLC (Zorbax C8, 214 nm), MALDI mass spectral analysis, scale of the general procedure 0.2 mmole): greater than 95%"

# Plain letter strings leave the end groups untold.
